In the supplement of paper PMC6411743:
± gives the standard deviation of the averaged measurements. Only a part is listed here, and it is no random draw.

By UniProt entry, the sequences of proteins in these tests, tags left out. Where a name states a change or a piece, a line headed by the entry shows the natural chain unless it says otherwise.
UniProt P23743: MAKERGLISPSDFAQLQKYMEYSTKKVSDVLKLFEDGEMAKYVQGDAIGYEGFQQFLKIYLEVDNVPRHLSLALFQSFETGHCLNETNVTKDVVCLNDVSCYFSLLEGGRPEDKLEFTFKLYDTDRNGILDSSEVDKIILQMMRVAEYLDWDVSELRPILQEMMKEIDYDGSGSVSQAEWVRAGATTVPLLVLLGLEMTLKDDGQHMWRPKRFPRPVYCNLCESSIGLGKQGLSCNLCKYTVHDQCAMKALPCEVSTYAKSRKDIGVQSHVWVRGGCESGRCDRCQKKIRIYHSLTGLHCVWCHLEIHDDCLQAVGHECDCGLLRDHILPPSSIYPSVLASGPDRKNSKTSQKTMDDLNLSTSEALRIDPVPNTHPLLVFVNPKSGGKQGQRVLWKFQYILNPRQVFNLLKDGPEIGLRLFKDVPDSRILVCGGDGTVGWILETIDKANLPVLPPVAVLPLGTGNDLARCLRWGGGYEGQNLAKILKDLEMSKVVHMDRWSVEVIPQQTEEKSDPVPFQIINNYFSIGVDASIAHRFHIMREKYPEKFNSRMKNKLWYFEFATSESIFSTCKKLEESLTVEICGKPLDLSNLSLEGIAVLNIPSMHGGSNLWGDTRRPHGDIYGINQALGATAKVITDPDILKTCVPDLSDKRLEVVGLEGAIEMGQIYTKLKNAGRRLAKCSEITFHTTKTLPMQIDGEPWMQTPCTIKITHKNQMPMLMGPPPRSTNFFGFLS
UniProt P34896: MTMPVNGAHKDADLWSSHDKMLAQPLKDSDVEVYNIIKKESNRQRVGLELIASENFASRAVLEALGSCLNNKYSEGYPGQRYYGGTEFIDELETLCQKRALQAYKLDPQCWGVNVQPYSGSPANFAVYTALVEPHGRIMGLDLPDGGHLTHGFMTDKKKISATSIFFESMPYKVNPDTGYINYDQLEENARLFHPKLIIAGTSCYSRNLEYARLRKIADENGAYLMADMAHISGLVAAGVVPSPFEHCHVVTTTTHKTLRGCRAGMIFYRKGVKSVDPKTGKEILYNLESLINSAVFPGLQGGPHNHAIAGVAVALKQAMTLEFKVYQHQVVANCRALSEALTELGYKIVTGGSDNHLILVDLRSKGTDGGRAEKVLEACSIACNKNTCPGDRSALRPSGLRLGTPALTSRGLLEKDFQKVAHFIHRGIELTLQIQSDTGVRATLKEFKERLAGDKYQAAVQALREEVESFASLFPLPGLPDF
UniProt P23497: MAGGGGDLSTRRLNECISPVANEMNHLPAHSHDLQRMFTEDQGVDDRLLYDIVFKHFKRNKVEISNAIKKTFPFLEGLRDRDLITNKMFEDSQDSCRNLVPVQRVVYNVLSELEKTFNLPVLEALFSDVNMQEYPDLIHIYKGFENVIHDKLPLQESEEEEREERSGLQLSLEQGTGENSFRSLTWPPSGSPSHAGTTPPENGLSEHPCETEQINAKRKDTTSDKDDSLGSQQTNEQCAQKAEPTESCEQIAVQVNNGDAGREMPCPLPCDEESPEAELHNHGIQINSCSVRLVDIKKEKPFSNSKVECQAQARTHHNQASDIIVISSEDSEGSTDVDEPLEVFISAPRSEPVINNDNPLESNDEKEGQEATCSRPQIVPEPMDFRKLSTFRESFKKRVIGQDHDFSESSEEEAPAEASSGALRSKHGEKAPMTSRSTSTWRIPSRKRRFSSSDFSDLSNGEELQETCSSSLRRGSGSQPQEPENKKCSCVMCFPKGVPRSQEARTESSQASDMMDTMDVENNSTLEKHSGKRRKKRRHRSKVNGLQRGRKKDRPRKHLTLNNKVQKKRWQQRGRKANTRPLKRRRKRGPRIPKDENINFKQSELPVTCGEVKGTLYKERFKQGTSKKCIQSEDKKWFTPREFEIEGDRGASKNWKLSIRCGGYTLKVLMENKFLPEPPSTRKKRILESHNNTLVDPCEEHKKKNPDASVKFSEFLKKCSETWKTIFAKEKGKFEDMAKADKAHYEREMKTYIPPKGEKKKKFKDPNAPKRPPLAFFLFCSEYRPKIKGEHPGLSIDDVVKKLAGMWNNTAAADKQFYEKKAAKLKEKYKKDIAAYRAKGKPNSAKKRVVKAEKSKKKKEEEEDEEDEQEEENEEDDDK
UniProt P23786: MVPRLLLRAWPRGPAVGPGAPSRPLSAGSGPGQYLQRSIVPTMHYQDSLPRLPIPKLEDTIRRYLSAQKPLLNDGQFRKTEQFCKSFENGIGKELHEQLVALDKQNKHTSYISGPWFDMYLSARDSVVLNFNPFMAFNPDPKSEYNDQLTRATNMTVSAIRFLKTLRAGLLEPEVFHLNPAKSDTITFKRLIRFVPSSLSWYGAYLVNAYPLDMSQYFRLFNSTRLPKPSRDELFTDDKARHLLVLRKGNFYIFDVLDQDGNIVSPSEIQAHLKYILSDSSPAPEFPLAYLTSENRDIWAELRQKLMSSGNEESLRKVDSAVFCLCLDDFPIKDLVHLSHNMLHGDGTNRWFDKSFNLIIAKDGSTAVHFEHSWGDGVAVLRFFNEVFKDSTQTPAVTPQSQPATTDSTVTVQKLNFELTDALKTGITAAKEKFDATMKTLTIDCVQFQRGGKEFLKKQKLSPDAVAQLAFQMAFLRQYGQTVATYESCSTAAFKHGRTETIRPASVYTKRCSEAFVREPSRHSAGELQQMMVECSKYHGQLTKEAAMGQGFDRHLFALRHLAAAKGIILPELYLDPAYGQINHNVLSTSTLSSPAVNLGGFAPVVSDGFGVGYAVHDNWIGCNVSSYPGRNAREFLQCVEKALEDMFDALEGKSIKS
UniProt P23634: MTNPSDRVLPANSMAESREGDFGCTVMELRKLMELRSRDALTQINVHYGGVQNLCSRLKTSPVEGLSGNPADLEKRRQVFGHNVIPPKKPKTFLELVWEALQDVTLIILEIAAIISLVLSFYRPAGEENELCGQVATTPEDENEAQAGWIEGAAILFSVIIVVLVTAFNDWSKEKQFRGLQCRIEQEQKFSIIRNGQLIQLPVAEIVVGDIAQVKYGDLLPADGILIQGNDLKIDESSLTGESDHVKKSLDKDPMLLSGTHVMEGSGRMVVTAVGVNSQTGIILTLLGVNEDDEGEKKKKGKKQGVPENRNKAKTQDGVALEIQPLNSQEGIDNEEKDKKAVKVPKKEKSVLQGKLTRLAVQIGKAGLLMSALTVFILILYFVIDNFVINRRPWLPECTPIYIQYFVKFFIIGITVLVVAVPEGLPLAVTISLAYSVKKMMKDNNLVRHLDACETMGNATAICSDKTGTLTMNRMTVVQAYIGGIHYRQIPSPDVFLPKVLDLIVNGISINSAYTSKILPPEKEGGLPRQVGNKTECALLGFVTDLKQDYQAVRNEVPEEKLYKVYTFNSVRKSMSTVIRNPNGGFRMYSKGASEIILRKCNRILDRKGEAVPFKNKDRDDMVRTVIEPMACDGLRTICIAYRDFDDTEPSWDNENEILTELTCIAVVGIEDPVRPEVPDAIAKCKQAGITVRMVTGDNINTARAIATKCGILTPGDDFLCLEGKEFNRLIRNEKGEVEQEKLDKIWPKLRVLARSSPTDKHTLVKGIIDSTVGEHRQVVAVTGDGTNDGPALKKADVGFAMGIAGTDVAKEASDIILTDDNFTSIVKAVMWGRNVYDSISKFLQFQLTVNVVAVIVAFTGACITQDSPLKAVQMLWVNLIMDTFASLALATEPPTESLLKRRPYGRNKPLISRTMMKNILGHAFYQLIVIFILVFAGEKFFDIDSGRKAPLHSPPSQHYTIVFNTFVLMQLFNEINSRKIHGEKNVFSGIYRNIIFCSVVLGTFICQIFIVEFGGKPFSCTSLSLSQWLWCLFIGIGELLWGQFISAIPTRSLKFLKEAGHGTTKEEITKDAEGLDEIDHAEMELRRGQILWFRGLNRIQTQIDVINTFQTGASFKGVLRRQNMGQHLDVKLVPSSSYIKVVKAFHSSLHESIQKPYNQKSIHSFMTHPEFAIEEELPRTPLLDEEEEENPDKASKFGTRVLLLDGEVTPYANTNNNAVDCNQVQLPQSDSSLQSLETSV
UniProt P38919, whole entry: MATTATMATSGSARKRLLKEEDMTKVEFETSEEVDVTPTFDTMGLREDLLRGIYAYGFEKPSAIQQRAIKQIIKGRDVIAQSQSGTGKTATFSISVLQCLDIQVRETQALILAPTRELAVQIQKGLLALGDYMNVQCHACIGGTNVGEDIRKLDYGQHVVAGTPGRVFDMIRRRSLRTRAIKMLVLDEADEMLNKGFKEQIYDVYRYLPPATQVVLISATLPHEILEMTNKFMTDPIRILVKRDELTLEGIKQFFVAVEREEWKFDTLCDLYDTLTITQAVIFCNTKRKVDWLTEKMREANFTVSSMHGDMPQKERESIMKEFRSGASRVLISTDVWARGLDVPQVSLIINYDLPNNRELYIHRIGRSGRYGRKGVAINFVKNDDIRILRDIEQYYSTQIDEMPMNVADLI
UniProt P23025: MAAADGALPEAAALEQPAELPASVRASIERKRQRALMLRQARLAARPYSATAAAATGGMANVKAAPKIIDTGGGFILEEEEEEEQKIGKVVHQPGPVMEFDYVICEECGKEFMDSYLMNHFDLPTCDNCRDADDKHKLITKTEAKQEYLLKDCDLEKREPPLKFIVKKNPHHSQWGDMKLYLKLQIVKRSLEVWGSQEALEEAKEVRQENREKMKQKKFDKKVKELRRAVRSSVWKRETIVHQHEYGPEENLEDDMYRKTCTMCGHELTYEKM
UniProt P31150: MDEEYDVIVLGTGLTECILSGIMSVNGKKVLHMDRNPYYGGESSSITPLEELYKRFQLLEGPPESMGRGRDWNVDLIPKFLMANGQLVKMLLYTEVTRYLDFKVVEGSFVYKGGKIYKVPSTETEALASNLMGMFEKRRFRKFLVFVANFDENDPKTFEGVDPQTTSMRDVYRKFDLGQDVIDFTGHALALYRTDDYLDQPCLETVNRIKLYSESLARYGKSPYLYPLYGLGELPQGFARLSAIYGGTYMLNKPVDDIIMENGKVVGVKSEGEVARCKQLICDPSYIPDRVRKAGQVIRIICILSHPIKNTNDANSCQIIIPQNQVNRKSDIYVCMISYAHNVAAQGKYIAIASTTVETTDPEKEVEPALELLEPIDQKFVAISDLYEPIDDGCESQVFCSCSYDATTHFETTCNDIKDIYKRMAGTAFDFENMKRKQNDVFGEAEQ
UniProt P17098: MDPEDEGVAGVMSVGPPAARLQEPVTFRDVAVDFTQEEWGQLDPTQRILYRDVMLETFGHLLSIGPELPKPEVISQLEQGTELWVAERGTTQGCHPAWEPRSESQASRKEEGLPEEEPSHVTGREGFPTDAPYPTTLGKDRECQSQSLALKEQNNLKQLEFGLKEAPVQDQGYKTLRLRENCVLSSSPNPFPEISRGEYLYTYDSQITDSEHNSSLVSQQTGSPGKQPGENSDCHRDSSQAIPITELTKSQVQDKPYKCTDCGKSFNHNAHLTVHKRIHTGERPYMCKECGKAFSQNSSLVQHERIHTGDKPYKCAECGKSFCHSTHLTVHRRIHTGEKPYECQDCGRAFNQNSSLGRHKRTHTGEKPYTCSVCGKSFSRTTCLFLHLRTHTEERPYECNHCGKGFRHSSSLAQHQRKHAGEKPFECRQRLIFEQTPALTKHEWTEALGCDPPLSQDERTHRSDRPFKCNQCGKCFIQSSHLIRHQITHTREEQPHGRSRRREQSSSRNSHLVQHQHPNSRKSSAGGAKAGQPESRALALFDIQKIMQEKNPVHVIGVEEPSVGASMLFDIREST
UniProt P27701: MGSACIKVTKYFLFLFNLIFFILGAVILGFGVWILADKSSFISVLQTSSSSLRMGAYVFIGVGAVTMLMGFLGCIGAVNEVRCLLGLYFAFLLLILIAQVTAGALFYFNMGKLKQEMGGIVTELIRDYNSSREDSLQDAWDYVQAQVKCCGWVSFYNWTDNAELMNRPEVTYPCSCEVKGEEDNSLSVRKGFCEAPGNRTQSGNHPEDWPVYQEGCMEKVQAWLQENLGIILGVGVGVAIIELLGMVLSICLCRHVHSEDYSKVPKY
UniProt P30533, whole entry: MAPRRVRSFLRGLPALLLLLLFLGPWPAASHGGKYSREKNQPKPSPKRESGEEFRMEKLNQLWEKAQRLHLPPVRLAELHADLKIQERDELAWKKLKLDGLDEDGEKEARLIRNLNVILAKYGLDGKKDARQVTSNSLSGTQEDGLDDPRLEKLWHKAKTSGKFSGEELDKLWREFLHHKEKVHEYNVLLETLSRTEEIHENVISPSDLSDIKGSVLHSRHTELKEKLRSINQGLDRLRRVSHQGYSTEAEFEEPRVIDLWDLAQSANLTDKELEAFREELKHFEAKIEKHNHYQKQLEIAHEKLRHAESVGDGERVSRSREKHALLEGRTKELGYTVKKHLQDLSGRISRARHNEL
UniProt P27144: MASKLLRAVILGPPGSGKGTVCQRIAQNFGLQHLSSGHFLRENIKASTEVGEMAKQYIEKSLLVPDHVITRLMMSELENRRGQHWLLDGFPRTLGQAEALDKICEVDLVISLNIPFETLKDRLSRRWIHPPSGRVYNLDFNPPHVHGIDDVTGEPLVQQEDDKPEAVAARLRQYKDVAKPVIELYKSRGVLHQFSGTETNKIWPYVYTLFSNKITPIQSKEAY

Compound: Nc1ncnc2c1ncn2[C@@H]1O[C@H](COP(=O)(O)OP(=O)(O)NP(=O)(O)O)[C@@H](O)[C@H]1O [adenylyl imidodiphosphate]
Assay: NP40-soluble protein abundance relative to vehicle (solubility fold change) (ratio); higher = more soluble protein in presence of AMP-PNP
Summary of the method: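 Jurkat crude lysate prepared with a Dounce homogeniser was treated at eight concentrations spanning 0.1 to 10 mM, 10 min at room temperature then 3 min at 37 °C. Solubilisation with 0.8% NP40 and benzonase and ultracentrifugation preceded TMT labelling of the supernatant for LC-MS/MS. Fold change against the detergent-processed vehicle was determined per replicate from vsn-normalised intensities, across three independent experiments.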

Target	NP40-soluble protein abundance (concentration: 1mM)	NP40-soluble protein abundance (concentration: 2mM)	NP40-soluble protein abundance (concentration: 4mM)	NP40-soluble protein abundance (concentration: 6mM)	NP40-soluble protein abundance (concentration: 8mM)	NP40-soluble protein abundance (concentration: 10mM)
CMPK1 (UniProt P30085)	0.986 ± 0.064	1.03 ± 0.056	0.927 ± 0.11	0.995 ± 0.023	0.912 ± 0.086	0.957 ± 0.12
CORO1A (UniProt P31146)	1.04 ± 0.015	1.01 ± 0.024	1.05 ± 0.032	1.11 ± 0.042	1.11 ± 0.08	1.11 ± 0.12
UQCRC2 (UniProt P22695)	0.978 ± 0.046	0.901 ± 0.014	0.995 ± 0.085	1.06 ± 0.07	1.1 ± 0.043	1.05 ± 0.065
DGKA (UniProt P23743)	1.04 ± 0.018	0.982 ± 0.1	1.06 ± 0.046	1.01 ± 0.022	1.04 ± 0.028	0.992 ± 0.02
TRIM21 (UniProt P19474)	0.9726 ± 0.0096	0.982 ± 0.024	0.977 ± 0.035	0.97 ± 0.016	0.964 ± 0.013	0.954 ± 0.048
UniProt P34896 and related entries	1.01 ± 0.029	0.928 ± 0.077	0.964 ± 0.024	0.9644 ± 0.009	0.976 ± 0.028	0.95 ± 0.047
SP100 (UniProt P23497)	0.997 ± 0.029	1.03 ± 0.059	0.996 ± 0.039	0.968 ± 0.041	0.942 ± 0.024	0.962 ± 0.049
UniProt P19784	0.962 ± 0.056	0.863 ± 0.086	0.969 ± 0.05	0.972 ± 0.063	1.06 ± 0.023	0.989 ± 0.078
CPT2 (UniProt P23786)	0.969 ± 0.025	0.922 ± 0.045	0.956 ± 0.0099	0.936 ± 0.018	0.9376 ± 0.0088	0.916 ± 0.031
UniProt P23634 and related entries	0.96 ± 0.042	0.937 ± 0.05	0.957 ± 0.026	0.945 ± 0.015	0.955 ± 0.019	0.959 ± 0.041
UniProt P17612	0.9057 ± 0.0056	0.869 ± 0.082	0.882 ± 0.036	0.882 ± 0.043	0.886 ± 0.026	0.844 ± 0.05
DDX6 (UniProt P26196)	0.999 ± 0.034	0.98 ± 0.034	1.023 ± 0.0053	1.05 ± 0.026	1.06 ± 0.021	1.07 ± 0.015
EIF4A3 (UniProt P38919)	0.908 ± 0.065	0.763 ± 0.11	0.9 ± 0.085	0.986 ± 0.12	1.06 ± 0.092	0.947 ± 0.079
UniProt P18754-2|P18754	1.05 ± 0.025	1.05 ± 0.019	1.054 ± 0.0037	1.07 ± 0.018	1.06 ± 0.013	1.09 ± 0.019
XPA (UniProt P23025)	0.9965 ± 0.0067	0.991 ± 0.027	1.02 ± 0.022	0.981 ± 0.044	1.01 ± 0.015	1 ± 0.034
TAGLN2 (UniProt P37802)	0.942 ± 0.02	0.954 ± 0.017	0.9566 ± 0.0059	0.941 ± 0.029	0.942 ± 0.086	0.89 ± 0.061
GDI1 (UniProt P31150)	1.02 ± 0.02	0.975 ± 0.048	1.02 ± 0.027	0.942 ± 0.021	0.982 ± 0.018	0.924 ± 0.015
TCEA1 (UniProt P23193)	1.02 ± 0.016	1.04 ± 0.032	1.04 ± 0.018	1.03 ± 0.026	1.02 ± 0.026	1.04 ± 0.064
UniProt P34897 and related entries	0.972 ± 0.033	0.94 ± 0.012	0.994 ± 0.043	1.04 ± 0.059	1.06 ± 0.037	1.03 ± 0.029
UniProt P38159 and related entries	1.12 ± 0.09	1.34 ± 0.094	1.34 ± 0.037	1.53 ± 0.16	1.58 ± 0.19	1.82 ± 0.16
ZNF8 (UniProt P17098)	1.01 ± 0.025	1.02 ± 0.018	0.975 ± 0.015	0.931 ± 0.022	0.911 ± 0.04	0.909 ± 0.024
RPL13 (UniProt P26373)	0.994 ± 0.11	0.971 ± 0.054	0.94 ± 0.13	0.916 ± 0.13	0.789 ± 0.054	0.958 ± 0.21
ZNF22 (UniProt P17026)	0.977 ± 0.013	1.02 ± 0.017	0.996 ± 0.033	1.02 ± 0.034	1.02 ± 0.048	1.04 ± 0.047
CAPG (UniProt P40121)	1.04 ± 0.038	1.06 ± 0.054	0.993 ± 0.032	0.983 ± 0.039	0.944 ± 0.04	0.954 ± 0.042
PPP2R1A (UniProt P30153)	0.975 ± 0.011	0.9688 ± 0.0087	0.95 ± 0.019	0.965 ± 0.03	0.958 ± 0.042	0.949 ± 0.034
CD82 (UniProt P27701)	1.15 ± 0.1	1.26 ± 0.036	1.11 ± 0.12	1.1 ± 0.081	1.03 ± 0.026	1.08 ± 0.074
LRPAP1 (UniProt P30533)	1.04 ± 0.021	1.11 ± 0.098	1.04 ± 0.025	1.048 ± 0.0067	1.03 ± 0.028	1.05 ± 0.024
UniProt P28331 and related entries	0.972 ± 0.037	0.935 ± 0.081	0.954 ± 0.059	0.949 ± 0.055	0.938 ± 0.037	0.942 ± 0.086
UniProt P35611 and related entries	0.995 ± 0.043	0.99 ± 0.034	0.999 ± 0.033	1 ± 0.014	1 ± 0.041	0.992 ± 0.039
AK4 (UniProt P27144)	0.968 ± 0.031	1.03 ± 0.074	1.01 ± 0.074	1.09 ± 0.078	1.07 ± 0.036	1.06 ± 0.049

Just NP40-soluble protein abundance (concentration: 8mM) and NP40-soluble protein abundance (concentration: 10mM) (2 entries from above):
Target	NP40-soluble protein abundance (concentration: 8mM)	NP40-soluble protein abundance (concentration: 10mM)
UniProt P19784	1.06 ± 0.023	0.989 ± 0.078
XPA (UniProt P23025)	1.01 ± 0.015	1 ± 0.034
